For this assay, the target named is T1, Flag-WtipN (Xenopus) (UniProt A9LS46).
T1 sequence: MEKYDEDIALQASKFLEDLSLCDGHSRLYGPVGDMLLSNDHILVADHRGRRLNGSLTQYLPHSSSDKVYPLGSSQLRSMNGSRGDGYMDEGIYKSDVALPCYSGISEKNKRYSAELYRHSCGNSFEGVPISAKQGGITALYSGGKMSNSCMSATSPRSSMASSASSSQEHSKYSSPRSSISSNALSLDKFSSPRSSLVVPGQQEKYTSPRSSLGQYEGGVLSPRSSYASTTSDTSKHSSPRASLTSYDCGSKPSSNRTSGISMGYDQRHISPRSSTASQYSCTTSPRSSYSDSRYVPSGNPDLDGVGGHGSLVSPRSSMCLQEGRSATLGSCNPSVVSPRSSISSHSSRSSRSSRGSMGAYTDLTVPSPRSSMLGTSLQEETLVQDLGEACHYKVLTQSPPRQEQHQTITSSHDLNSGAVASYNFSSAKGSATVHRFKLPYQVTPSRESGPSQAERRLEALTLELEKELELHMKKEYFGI
Nature of the assay: co-IP.

These are yes or no findings as the source states them, for the method shown. In cells and extracts the contact can be indirect. Binding can be weak; no strength is given. Sequences can lack the tags named with a protein.

Take GFP-SSX2IP (Xenopus): the binding result is recorded as “binds”.

For the origin of these results see paper doi:10.1101/2021.05.16.444380.
